This passage reports binding results from paper PMC7515705.

The target of experiment [1] is T1, YBEY-3 × FLAG (human), P58557.
T1 chain: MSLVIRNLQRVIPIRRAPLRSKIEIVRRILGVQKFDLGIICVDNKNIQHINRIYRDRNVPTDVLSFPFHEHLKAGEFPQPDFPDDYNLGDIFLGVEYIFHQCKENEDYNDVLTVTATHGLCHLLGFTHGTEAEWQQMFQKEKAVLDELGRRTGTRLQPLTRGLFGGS
Put plainly: FRET or BRET; indirect FLIM-FRET in fixed, immunolabelled SAL001 cells; donor Alexa Fluor 488, acceptor Alexa Fluor 555 on secondary antibodies; donor lifetime in the frequency domain. Conditions: remark: other sources report otherwise. (In BRET a luciferase serves as donor, and the signal depends on an acceptor being close.)

Experiment [2] shares this target. Put plainly: co-IP; α-FLAG antibody and protein A-sepharose on mitochondrial lysates of SAL001 cells expressing YBEY-3 × FLAG; parental cells as control; western blotting of lysate, flow-through, wash and IP fractions. As to conditions: remark: other sources report otherwise. A general note: Immunoblotting shows a protein as a band on a membrane.
Experiment [3] has the same target. As to the kind of experiment: co-IP; cross-pulldown from total lysates of cells overexpressing YBEY-3 × FLAG and/or p32-HA; α-FLAG or α-HA antibody, protein A-sepharose; western blotting. Conditions: remark: other sources report otherwise.
Experiment [4] has as its target T2, YBEY-His6 (human), P58557.
T2 chain: T1 chain
As to the kind of experiment: pull-down; YBEY-His6 and tagless p32 co-expressed in E. coli; cleared lysate on Ni-NTA agarose, native conditions (20 mM Tris-HCl pH 7.5, 150 mM KCl, 1 mM MgCl2), step elution with imidazole, 4°C. Conditions: remark: other sources report otherwise.

Experiment [5] addresses T2, YBEY-His6 (human), P58557. As to the kind of experiment: pull-down; cleared lysates of E. coli co-expressing YBEY-His6 and p32 and of E. coli expressing uS11m mixed 1:1, 30 min at 4°C, then Ni-NTA agarose, native conditions, step elution with imidazole. Conditions: remark: other sources report otherwise.
In a further experiment the target is T3, p32-HA (human), Q07021.
T3 chain: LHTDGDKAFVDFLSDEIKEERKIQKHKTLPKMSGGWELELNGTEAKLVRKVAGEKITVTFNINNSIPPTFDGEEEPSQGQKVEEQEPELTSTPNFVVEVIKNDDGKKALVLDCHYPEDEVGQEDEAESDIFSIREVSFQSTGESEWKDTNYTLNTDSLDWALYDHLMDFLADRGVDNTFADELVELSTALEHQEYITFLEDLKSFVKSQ
As to the kind of experiment: co-IP; cross-pulldown from total lysates of cells overexpressing YBEY-3 × FLAG and/or p32-HA; α-FLAG or α-HA antibody, protein A-sepharose; western blotting. As to conditions: remark: other sources report otherwise.

For experiment [6], the target named is p32/C1QBP, endogenous (human (endogenous in Flp-In T-REx 293)) (UniProt Q07021). Put plainly: co-IP; α-p32 antibody (α-FLAG as negative control) and protein A-sepharose on mitochondrial lysate of Flp-In T-REx 293 cells; endogenous proteins; western blotting.

No constants are given. Whether binding was seen depends on the method and setting. Binding seen in cells or lysates may run through a third protein. Some results given as binding are weak or reduced against the parent protein; the word gives no strength. For some of these results: Where a sequence is shown, tags or fusion partners need not be part of it.

B1: p32/C1QBP, endogenous, Q07021 74-282 (natural protein)
chain: T3 chain
Regarding B1, the binding entry in experiment [1] and in experiment [2] was “binds” throughout.

B2: p32-HA, Q07021 74-282 (protein)
chain: T3 chain
For B2, the binding entry in experiment [3] is “binds”.

B3: p32 (mature form, tagless), Q07021 74-282 (protein)
chain: T3 chain
B3: the binding result in experiment [4] and in experiment [5] was “binds” throughout.

B4: YBEY-3 × FLAG, P58557-1 1-167 (protein)
chain: T1 chain
Regarding B4, the binding result with p32-HA (human), Q07021 is on record as “binds”.

B5: endogenous YBEY (protein, UniProt P58557-1 1-167)
chain: T1 chain
Turning to B5, the binding entry in experiment [6] is recorded as “binds”.
